Values from PubChem BioAssay AID686943 (Drosophila RNAi Screening Center, 2013).
The screen tested about 23,000 reagents; below is an unselected part of those with a known target gene and a result. 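Extra replicates exist only for a retested subset of genes; insulin dose and duration not given; both raised and lowered dpERK matter.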 The numbers tell different reagents against one gene apart. Names joined by + are all predicted targets of the reagent. Further read-outs or replicates are left out here. The record does not give: the amount of reagent, the time to read-out.

- Purpose: 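Search across the genome for regulators of signalling from receptor tyrosine kinase to ERK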 (primary screen)
- System: Drosophila S2R+ haemocyte-like cells expressing YFP-tagged ERK (Rolled)
- Reagent: long dsRNA against Drosophila genes
- Conditions: insulin stimulation versus unstimulated cells; dose and duration not given
- Read-out: 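Antibody staining for doubly phosphorylated ERK divided by ERK-YFP signal, as plate z-scores, in insulin-treated and untreated cells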
- Reading the numbers: replicate 1, z-score of dpERK with insulin: higher = more active ERK per ERK-YFP after insulin

replicate 1, z-score of dpERK with insulin, by gene and reagent
Chd3: #1 -0.65
ScsbetaA (Succinyl-coenzyme A synthetase beta subunit, ADP-forming): #1 -1.04
Tim8: #1 -0.64
Mul1 (Mitochondrial E3 ubiquitin protein ligase 1): #1 -0.62
CG11854: #1 1.21
CG2187: #1 0.56
Roc1b + Cdc5: #1 0.24
CG12506: #1 -0.82
CG8441: #1 -0.07
mth (methuselah): #1 -0.05
msps (mini spindles): #1 -0.52
CG42258: #1 0.87; #2 -2.01
exex (extra-extra): #1 0.68
CG15456: #1 -0.19
side-IV + asRNA:CR17025: #1 3.73; #2 -0.72
CG14687: #1 1.7
CG14451: #1 -1.56
CG14104: #1 0.5
eIF3e (eukaryotic translation initiation factor 3 subunit e): #1 -0.63
nom (numerous disordered muscles): #1 0.32
Ids (Iduronate 2-sulfatase): #1 0.69
Pabp2: #1 -1.84
CG2608: #1 0.54
CG14500: #1 -0.25
CTCF: #1 -0.18
Taf2 (TBP-associated factor 2): #1 1.74
CG7101: #1 0.56; #2 -0.12
CG15125: #1 -0.24
hbt + CG43779: #1 0.49
blow (blown fuse): #1 -0.17
Sgs4 (Salivary gland secretion 4): #1 0.53
CG4194: #1 0.27
term (terminus): #1 1.59
RpS14a (Ribosomal protein S14a): #1 1.82
sob: #1 1.29
COX7A (Cytochrome c oxidase subunit 7A): #1 -1.04
Camp (Cathelicidin-like antimicrobial protein): #1 0.07
Fer2 (48 related 2): #1 0.16
CG8916: #1 0.22
Eo (Ecdysone oxidase): #1 -1.57
CG15554: #1 0.62
CG4730: #1 -0.16
ERR (estrogen-related receptor): #1 -0.02
nAChRbeta2 (nicotinic Acetylcholine Receptor beta2): #1 0.29
CG12105: #1 0.03
Bap55 (Brahma associated protein 55kD): #1 -1.56
c(3)G (crossover suppressor on 3 of Gowen): #1 0.21
Mnt: #1 -0.71; #2 0.81
CG13437: #1 0.1
CG30056: #1 0.04
Sf3b2 (Splicing factor 3b subunit 2): #1 1.5
Sfmbt (Scm-related gene containing four mbt domains): #1 1.02
CG13168: #1 0.43
Hex-A (Hexokinase A): #1 0.06
Stim (Stromal interaction molecule): #1 -0.08
tbrd-1: #1 0.45
pdgy (pudgy): #1 -0.14; #2 -0.09
CG9328: #1 1.22
CG15118: #1 -0.99
CG40005 (retired record) + cta: #1 1.38
P5CDh1 (delta-1-Pyrroline-5-carboxylate dehydrogenase 1): #1 -0.18
Acp95EF + Spase22-23: #1 0.21
CG31921: #1 -0.06
Cpr100A (Cuticular protein 100A): #1 0.09
lms (lateral muscles scarcer): #1 0.28
Cyp6a20 (Cytochrome P450 6a20): #1 0.31
CG7970: #1 0.69
se (sepia): #1 0.26

Quoted from the entries so far for reference:
replicate 1, z-score of dpERK with insulin, by gene and reagent
CG2608: #1 0.54
CG14500: #1 -0.25
CTCF: #1 -0.18
Taf2 (TBP-associated factor 2): #1 1.74
CG7101: #1 0.56; #2 -0.12
CG15125: #1 -0.24
hbt + CG43779: #1 0.49
